Data as given in PubChem BioAssay AID1259254 (NCATS, 2017)

Assay: 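Gene knock-downs that lead to re-replication, shown by excess G2 DNA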 (primary screen)
Cell system: human HCT116 colorectal cancer cells
Knock-down reagent: single siRNA against human genes
Timing: 3 days
Detection: 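Nuclei stained with Hoechst and imaged; cell-cycle phase assigned by DNA content; G2 share scaled per plate, non-targeting siRNA 0%, GMNN siRNA 100%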
Scale: G2 robust z-score and G2 cells, % of GMNN control: higher = more G2 cells, more excess DNA replication
Hit rule: 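Active siRNAs have a G2 robust z of 5 or more median absolute deviations over the median, which in these data means about 38% or higher of GMNN control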
The whole screen tested about 59,000 reagents; shown is a part drawn at random. Of all reagents, about 1,550 (2.6%) are marked active. 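G2 share is only a proxy for re-replication; each gene was hit by three separate siRNAs, and active genes were retested.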 Not all columns of the deposit are shown. The record does not give: the amount of reagent.

The first 3 records, ahead of the listing:
KRTAP9-1 (GeneID 728318) [SID160726642] — G2 robust z-score: 1.82; G2 cells, % of GMNN control: 15.8; activity call: inactive
KRTAP9-1 (GeneID 728318) [SID160734330] — G2 robust z-score: -0.476; G2 cells, % of GMNN control: -0.385; activity call: inactive
KRTAP9-1 (GeneID 728318) [SID160771700] — G2 robust z-score: -0.786; G2 cells, % of GMNN control: -2.56; activity call: inactive

Main list, repeating the preview:
KRTAP9-1 (GeneID 728318) [SID160726642] — G2 robust z-score: 1.82; G2 cells, % of GMNN control: 15.8; activity call: inactive
KRTAP9-1 (GeneID 728318) [SID160734330] — G2 robust z-score: -0.476; G2 cells, % of GMNN control: -0.385; activity call: inactive
KRTAP9-1 (GeneID 728318) [SID160771700] — G2 robust z-score: -0.786; G2 cells, % of GMNN control: -2.56; activity call: inactive
MACIR (GeneID 90355) [SID160753664] — G2 robust z-score: -0.398; G2 cells, % of GMNN control: 0.169; activity call: inactive
MACIR (GeneID 90355) [SID160753666] — G2 robust z-score: -0.219; G2 cells, % of GMNN control: 1.43; activity call: inactive
MACIR (GeneID 90355) [SID160753667] — G2 robust z-score: -0.391; G2 cells, % of GMNN control: 0.217; activity call: inactive
TMA7 (GeneID 51372) [SID160733504] — G2 robust z-score: -0.517; G2 cells, % of GMNN control: -0.673; activity call: inactive
TMA7 (GeneID 51372) [SID160740701] — G2 robust z-score: 0.304; G2 cells, % of GMNN control: 5.11; activity call: inactive
TMA7 (GeneID 51372) [SID160740702] — G2 robust z-score: 0.651; G2 cells, % of GMNN control: 7.55; activity call: inactive
LINC01874 (GeneID 727944) [SID160771334] — G2 robust z-score: 0.0319; G2 cells, % of GMNN control: 3.19; activity call: inactive
LINC01874 (GeneID 727944) [SID160771335] — G2 robust z-score: -0.958; G2 cells, % of GMNN control: -3.77; activity call: inactive
LINC01874 (GeneID 727944) [SID160771336] — G2 robust z-score: -0.379; G2 cells, % of GMNN control: 0.299; activity call: inactive
C21orf58 (GeneID 54058) [SID160733535] — G2 robust z-score: -0.558; G2 cells, % of GMNN control: -0.961; activity call: inactive
C21orf58 (GeneID 54058) [SID160741543] — G2 robust z-score: -1.04; G2 cells, % of GMNN control: -4.33; activity call: inactive
C21orf58 (GeneID 54058) [SID160741544] — G2 robust z-score: 0.198; G2 cells, % of GMNN control: 4.36; activity call: inactive
H3-3A (GeneID 3020) [SID160774817] — G2 robust z-score: -0.424; G2 cells, % of GMNN control: -0.0129; activity call: inactive
H3-3A (GeneID 3020) [SID160774818] — G2 robust z-score: 5.11; G2 cells, % of GMNN control: 38.9; activity call: active
H3-3A (GeneID 3020) [SID160774819] — G2 robust z-score: -0.798; G2 cells, % of GMNN control: -2.64; activity call: inactive
DDX43 (GeneID 55510) [SID160743736] — G2 robust z-score: 1.37; G2 cells, % of GMNN control: 12.6; activity call: inactive
DDX43 (GeneID 55510) [SID160743738] — G2 robust z-score: -1.15; G2 cells, % of GMNN control: -5.12; activity call: inactive
DDX43 (GeneID 55510) [SID160743739] — G2 robust z-score: -0.817; G2 cells, % of GMNN control: -2.78; activity call: inactive
SPRYD7 (GeneID 57213) [SID160745826] — G2 robust z-score: -0.0292; G2 cells, % of GMNN control: 2.76; activity call: inactive
SPRYD7 (GeneID 57213) [SID160745827] — G2 robust z-score: -1.36; G2 cells, % of GMNN control: -6.57; activity call: inactive
SPRYD7 (GeneID 57213) [SID160745828] — G2 robust z-score: 0.654; G2 cells, % of GMNN control: 7.57; activity call: inactive
